Experimental data taken from the supplement of paper PMC12067093, “Discovery and optimisation of a covalent ligand for TRIM25 and its application to targeted protein ubiquitination” (Chemical Science, 2025).
The list shows a part of the results.

Chains of the proteins cited; added tags and fusions are not shown. Lines headed by an entry give the natural chain unless they say otherwise; changes in a name come on top.
UniProt Q96MF7: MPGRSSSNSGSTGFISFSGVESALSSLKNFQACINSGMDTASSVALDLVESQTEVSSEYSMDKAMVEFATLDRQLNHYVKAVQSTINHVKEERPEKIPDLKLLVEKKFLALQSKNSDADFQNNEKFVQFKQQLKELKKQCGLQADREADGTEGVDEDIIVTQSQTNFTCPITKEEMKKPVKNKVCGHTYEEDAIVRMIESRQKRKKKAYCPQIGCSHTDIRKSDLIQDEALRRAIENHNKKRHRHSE
UniProt Q9Y2X3: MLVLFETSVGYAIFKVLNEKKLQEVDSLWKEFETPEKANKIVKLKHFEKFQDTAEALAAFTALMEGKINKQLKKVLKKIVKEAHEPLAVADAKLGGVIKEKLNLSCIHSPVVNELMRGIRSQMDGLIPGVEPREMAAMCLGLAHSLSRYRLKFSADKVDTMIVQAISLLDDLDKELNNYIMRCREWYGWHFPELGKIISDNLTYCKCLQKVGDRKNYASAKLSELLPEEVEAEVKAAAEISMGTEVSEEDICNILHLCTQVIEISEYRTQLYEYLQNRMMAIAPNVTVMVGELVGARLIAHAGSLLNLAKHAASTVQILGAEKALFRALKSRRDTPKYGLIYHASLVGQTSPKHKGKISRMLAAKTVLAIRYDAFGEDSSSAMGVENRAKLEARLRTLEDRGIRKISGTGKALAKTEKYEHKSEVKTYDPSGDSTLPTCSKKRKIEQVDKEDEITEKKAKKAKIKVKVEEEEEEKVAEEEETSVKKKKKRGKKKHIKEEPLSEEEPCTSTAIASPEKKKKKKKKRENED
UniProt Q8TAT6: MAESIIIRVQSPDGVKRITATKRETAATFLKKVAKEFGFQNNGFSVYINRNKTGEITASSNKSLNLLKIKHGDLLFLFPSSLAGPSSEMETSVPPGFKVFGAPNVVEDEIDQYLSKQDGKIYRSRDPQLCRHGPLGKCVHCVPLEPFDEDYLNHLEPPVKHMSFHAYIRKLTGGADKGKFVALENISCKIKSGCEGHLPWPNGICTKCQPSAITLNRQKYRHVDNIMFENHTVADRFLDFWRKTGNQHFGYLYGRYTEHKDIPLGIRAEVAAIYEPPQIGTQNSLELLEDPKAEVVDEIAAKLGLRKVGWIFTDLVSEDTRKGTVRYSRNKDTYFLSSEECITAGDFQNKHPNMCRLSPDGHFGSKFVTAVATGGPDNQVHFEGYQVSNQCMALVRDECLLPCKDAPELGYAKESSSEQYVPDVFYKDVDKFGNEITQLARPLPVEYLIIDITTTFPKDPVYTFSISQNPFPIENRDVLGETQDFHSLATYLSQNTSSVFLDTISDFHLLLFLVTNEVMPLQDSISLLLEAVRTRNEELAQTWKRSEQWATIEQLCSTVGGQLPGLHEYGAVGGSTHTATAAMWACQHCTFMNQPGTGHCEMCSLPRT
UniProt Q5C9Z4: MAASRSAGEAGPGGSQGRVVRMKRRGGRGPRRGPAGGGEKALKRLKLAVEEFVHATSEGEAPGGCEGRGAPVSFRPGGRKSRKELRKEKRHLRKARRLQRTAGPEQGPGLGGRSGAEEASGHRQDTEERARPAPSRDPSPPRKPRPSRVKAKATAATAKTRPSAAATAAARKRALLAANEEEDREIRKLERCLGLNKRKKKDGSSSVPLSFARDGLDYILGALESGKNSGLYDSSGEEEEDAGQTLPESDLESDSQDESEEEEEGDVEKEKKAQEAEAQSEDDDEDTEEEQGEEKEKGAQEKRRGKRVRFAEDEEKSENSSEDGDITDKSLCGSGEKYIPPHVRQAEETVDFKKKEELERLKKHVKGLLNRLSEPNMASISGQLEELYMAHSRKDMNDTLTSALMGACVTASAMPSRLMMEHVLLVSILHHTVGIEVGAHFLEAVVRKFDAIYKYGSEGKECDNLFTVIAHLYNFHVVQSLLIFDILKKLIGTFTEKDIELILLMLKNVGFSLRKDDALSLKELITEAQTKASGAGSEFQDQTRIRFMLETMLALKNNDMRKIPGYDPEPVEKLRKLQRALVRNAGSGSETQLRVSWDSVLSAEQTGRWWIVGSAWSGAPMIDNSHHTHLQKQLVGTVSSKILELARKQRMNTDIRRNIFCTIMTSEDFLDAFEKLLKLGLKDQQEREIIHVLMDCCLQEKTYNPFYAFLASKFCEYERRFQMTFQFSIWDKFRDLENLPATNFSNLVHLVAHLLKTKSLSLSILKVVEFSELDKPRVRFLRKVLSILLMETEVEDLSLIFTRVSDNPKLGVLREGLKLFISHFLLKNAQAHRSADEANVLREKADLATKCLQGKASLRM
UniProt O15118: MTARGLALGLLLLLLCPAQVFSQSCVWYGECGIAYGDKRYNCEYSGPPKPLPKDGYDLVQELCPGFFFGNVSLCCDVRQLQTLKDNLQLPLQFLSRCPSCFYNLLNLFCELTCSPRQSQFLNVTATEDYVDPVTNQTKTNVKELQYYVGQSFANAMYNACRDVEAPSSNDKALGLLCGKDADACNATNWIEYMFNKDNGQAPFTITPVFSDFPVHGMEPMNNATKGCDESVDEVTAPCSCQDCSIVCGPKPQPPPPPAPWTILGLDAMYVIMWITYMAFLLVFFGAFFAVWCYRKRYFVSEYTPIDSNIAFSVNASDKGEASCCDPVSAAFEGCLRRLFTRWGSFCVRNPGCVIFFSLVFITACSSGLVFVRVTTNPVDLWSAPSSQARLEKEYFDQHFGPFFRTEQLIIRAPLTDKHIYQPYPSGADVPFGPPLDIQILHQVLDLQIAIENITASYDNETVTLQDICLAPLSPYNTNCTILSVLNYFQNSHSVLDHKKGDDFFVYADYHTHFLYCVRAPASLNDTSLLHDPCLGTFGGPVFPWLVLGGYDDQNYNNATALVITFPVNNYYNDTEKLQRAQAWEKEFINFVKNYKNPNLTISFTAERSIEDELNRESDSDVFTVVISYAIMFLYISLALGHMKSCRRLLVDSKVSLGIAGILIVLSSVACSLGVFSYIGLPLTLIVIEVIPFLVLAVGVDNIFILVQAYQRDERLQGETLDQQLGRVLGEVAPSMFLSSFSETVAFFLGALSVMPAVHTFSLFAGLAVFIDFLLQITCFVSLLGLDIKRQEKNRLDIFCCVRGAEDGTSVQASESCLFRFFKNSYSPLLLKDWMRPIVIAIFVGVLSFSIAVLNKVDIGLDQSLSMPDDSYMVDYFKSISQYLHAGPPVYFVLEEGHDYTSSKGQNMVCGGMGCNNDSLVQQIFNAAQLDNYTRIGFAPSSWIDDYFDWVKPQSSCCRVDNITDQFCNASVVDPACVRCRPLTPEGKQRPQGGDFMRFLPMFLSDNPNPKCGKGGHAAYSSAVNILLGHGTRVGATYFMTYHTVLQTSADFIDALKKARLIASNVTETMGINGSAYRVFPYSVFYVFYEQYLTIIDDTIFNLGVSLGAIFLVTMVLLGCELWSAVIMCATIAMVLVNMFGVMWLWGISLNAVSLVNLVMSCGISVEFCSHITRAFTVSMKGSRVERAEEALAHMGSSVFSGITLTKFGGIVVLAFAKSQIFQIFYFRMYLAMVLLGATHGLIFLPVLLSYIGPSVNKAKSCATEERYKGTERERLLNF
UniProt Q3KNT7: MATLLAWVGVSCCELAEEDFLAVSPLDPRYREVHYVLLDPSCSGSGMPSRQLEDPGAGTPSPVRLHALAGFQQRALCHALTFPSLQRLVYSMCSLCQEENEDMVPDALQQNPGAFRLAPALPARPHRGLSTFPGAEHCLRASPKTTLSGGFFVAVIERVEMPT
UniProt Q08J23, whole entry, looked up: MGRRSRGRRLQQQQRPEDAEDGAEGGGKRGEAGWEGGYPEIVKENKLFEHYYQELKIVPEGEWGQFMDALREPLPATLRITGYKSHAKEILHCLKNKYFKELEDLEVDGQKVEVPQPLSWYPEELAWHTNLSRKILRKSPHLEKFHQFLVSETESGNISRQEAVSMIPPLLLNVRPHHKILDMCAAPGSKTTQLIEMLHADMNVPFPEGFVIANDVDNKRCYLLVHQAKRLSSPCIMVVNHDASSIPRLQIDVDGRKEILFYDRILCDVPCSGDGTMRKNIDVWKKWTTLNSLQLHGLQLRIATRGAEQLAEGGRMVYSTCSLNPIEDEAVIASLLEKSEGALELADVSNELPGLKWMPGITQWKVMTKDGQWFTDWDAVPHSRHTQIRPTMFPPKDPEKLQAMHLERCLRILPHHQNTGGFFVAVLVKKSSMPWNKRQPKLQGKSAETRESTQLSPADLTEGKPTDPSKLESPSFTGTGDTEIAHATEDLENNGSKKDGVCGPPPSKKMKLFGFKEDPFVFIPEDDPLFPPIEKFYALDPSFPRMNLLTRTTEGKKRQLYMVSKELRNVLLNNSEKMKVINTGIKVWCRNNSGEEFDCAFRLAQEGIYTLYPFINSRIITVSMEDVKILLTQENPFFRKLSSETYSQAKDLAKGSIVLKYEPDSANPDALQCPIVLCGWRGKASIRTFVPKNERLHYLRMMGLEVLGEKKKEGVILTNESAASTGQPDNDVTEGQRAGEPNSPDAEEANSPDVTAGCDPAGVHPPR
UniProt P13056: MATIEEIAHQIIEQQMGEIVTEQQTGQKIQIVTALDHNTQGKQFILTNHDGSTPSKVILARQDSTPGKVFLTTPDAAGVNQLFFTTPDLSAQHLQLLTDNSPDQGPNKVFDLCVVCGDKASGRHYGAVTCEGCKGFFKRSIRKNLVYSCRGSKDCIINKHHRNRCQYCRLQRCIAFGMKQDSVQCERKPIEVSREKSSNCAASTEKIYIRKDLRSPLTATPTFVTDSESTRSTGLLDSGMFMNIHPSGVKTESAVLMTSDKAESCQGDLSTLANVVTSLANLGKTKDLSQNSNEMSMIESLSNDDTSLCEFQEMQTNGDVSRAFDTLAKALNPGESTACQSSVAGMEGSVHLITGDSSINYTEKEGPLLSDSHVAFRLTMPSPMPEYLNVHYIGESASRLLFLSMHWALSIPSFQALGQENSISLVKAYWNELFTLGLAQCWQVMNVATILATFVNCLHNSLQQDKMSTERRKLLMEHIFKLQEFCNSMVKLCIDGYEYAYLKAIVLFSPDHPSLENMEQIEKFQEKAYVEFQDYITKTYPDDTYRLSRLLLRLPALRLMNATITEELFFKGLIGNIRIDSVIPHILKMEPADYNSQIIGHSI
UniProt O43847: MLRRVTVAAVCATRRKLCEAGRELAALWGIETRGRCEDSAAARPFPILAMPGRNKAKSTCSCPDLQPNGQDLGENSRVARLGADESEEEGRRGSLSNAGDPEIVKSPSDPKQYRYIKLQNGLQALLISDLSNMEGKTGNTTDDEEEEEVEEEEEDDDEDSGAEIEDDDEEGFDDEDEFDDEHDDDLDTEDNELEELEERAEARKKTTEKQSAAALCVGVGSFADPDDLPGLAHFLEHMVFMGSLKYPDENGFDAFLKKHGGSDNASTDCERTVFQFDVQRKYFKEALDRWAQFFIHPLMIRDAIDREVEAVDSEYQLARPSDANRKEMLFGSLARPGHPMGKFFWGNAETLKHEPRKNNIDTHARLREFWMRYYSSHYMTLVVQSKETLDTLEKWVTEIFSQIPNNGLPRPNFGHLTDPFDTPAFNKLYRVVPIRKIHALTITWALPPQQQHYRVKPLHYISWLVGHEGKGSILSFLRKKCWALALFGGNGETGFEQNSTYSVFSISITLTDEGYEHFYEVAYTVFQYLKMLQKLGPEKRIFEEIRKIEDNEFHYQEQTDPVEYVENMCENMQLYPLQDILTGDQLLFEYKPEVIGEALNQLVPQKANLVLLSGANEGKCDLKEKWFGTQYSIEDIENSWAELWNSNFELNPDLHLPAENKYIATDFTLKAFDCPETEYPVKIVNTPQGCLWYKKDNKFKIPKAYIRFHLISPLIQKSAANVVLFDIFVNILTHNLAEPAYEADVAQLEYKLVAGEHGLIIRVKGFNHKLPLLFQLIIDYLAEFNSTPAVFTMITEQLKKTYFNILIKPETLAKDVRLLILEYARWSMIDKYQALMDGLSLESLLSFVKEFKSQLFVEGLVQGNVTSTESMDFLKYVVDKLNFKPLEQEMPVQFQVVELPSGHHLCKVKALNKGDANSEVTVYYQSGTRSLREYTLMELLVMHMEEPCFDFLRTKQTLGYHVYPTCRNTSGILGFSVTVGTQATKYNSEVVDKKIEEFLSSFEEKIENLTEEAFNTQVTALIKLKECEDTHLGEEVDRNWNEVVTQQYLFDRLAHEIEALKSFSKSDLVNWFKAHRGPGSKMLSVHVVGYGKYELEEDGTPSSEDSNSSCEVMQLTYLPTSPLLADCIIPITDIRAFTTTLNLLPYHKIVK

Compound: CC1Cc2ccccc2N1C(=O)C1CCCN(C1)C(=O)CCl (mixture of isomers) [TRIM25 ligand 11 (diastereomer mixture)]
Experiment: probe-labelled cysteine peptide fold change vs DMSO (competition) (log2 fold change); higher = less target engagement (more negative = stronger competition)
Conditions: THP-1, incubation time: 4 h
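Also: competitive chemoproteomic profiling in live THP-1 cells with an iodoacetamide desthiobiotin (IA-DTB) probe, comparing probe-labelled peptide intensities in compound-treated cells against DMSO-treated controls.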

## NSMCE2_Q96MF7_185_VCGHTYEEDAIVR (UniProt Q96MF7)
10 µM
  probe-labelled cysteine peptide fold change: -0.0631
50 µM
  probe-labelled cysteine peptide fold change: 0.0833

## NOP58_Q9Y2X3_439_TYDPSGDSTLPTCSK (UniProt Q9Y2X3)
10 µM
  probe-labelled cysteine peptide fold change: 0.142
50 µM
  probe-labelled cysteine peptide fold change: -0.0692

## NPLOC4_Q8TAT6_399_DECLLPCK (UniProt Q8TAT6)
10 µM
  probe-labelled cysteine peptide fold change: 0.191
50 µM
  probe-labelled cysteine peptide fold change: 0.311

## NOL6_Q9H6R4_739_LDKPCPAYVEPMTVVCHLEGSGQWPQDAEAVQR (UniProt Q9H6R4)
10 µM
  probe-labelled cysteine peptide fold change: -0.16
50 µM
  probe-labelled cysteine peptide fold change: -0.0265

## NOM1_Q5C9Z4_696_EIIHVLMDCCLQEK (UniProt Q5C9Z4)
10 µM
  probe-labelled cysteine peptide fold change: 0.174
50 µM
  probe-labelled cysteine peptide fold change: 0.251

## NOTCH1_P46531_1225_GTQGVHCEINVDDCNPPVDPVSR (UniProt P46531)
10 µM
  probe-labelled cysteine peptide fold change: 0.0133
50 µM
  probe-labelled cysteine peptide fold change: -0.21

## NOL6_Q9H6R4_486_LQAACHR (UniProt Q9H6R4)
10 µM
  probe-labelled cysteine peptide fold change: -0.0458
50 µM
  probe-labelled cysteine peptide fold change: 0.0451

## NPC1_O15118_42_RYNCEYSGPPKPLPK (UniProt O15118)
10 µM
  probe-labelled cysteine peptide fold change: 0.0384
50 µM
  probe-labelled cysteine peptide fold change: 0.059

## NSUN5P1_Q3KNT7_138_GLSTFPGAEHCLR (UniProt Q3KNT7)
10 µM
  probe-labelled cysteine peptide fold change: 0.113
50 µM
  probe-labelled cysteine peptide fold change: -0.0724

## NSUN2_Q08J23_502_KDGVCGPPPSKK (UniProt Q08J23)
10 µM
  probe-labelled cysteine peptide fold change: -0.178
50 µM
  probe-labelled cysteine peptide fold change: -0.23

## NOTCH1_P46531_2140_SPQLHGAPLGGTPTLSPPLCSPNGYLGSLKPGVQGK (UniProt P46531)
10 µM
  probe-labelled cysteine peptide fold change: -0.134
50 µM
  probe-labelled cysteine peptide fold change: -0.381

## NR2C1_P13056_185_QDSVQCER (UniProt P13056)
10 µM
  probe-labelled cysteine peptide fold change: 0.0182
50 µM
  probe-labelled cysteine peptide fold change: -0.0493

## NRDC_O43847_674_AFDCPETEYPVK (UniProt O43847)
10 µM
  probe-labelled cysteine peptide fold change: 0.103
50 µM
  probe-labelled cysteine peptide fold change: 0.0105

## NR2C1_P13056_200_SSNCAASTEK (UniProt P13056)
10 µM
  probe-labelled cysteine peptide fold change: -0.12
50 µM
  probe-labelled cysteine peptide fold change: -0.163
